Data source: PubChem BioAssay AID1259424 (University of Nebraska Medical Center, 2018)
Assay: 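Rank knockdowns across the genome by resemblance to the KSR1 depletion profile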 (primary screen). Cells: human HCT116 colon cancer cells. Reagents: siRNA pool against human genes, 50 nM. Measurement: 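Log2 levels of six mRNAs (branched-DNA multiplex), adjusted by two reference genes and the non-targeting median, then scored against the average KSR1 knockdown pattern as Pearson r and euclidean distance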. Reading the numbers: mean correlation with KSR1 profile and KSR1 correlation: higher = expression change more like KSR1 knockdown; mean distance from KSR1 profile: higher = expression change less like KSR1 knockdown.
Here is a random part of about 14,000 reagents tested. 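Higher correlation or smaller distance means closer resemblance to KSR1 loss; control wells, including KSR1 knockdowns, recur on many plates.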 The numbers tell different reagents against one gene apart. Further read-outs or replicates are left out here. Not given: the time to read-out.

target gene	reagent	mean correlation with KSR1 profile	mean distance from KSR1 profile	KSR1 correlation, replicate 1
SPCS1 (signal peptidase complex subunit 1)	1	-0.314	1.21	-0.417
DNAJC3 (DnaJ heat shock protein family (Hsp40) member C3)	1	0.0484	1.66	-0.249
GUSBP14 (GUSB pseudogene 14)	1	-0.44	4.72	-0.327
GUSBP14 (GUSB pseudogene 14)	2	-0.199	4.42	-0.163
TAF10 (TATA-box binding protein associated factor 10)	1	-0.871	2.14	-0.142
ZNF329 (zinc finger protein 329)	1	0.635	1.21	0.676
EMC1 (ER membrane protein complex subunit 1)	1	-0.465	1.01	-0.124
PTGDS (prostaglandin D2 synthase)	1	0.47	2.21	0.595
CLPS (colipase)	1	-0.551	2.6	-0.547
MOK (MOK protein kinase)	1	0.485	2.05	0.494
TBPL1 (TATA-box binding protein like 1)	1	-0.225	1.74	-0.185
SLC25A22	1	0.121	4.29	0.291
REV3L (REV3 like, DNA directed polymerase zeta catalytic subunit)	1	0.709	0.586	0.531
ARHGAP19 (Rho GTPase activating protein 19)	1	0.442	1.99	0.361
RAPGEF5 (Rap guanine nucleotide exchange factor 5)	1	0.23	1.96	0.0941
ZP4 (zona pellucida glycoprotein 4)	1	-0.437	1.94	-0.323
TRIM24 (tripartite motif containing 24)	1	-0.0439	2.11	-0.197
HS3ST1 (heparan sulfate-glucosamine 3-sulfotransferase 1)	1	0.565	1.35	0.391
HERC2 (HECT and RLD domain containing E3 ubiquitin protein ligase 2)	1	0.58	0.989	-0.142
DNAJC12 (DnaJ heat shock protein family (Hsp40) member C12)	1	-0.689	3.06	-0.633
